Results as given in PubChem BioAssay AID662 (National Center for Advancing Translational Sciences (NCATS), 2007).
This is one part of the list. The main result of the screen is listed elsewhere. These columns were measured beside it and carry no call. Most of these compounds were active or inconclusive in the main read-out, so they are no random draw. Potencies come from curve fits of mixed quality, noted in brackets.

Experiment: Cell signaling CRE-BLA (Fsk stim)
Conditions: CHO CRE-bla reporter (cAMP response element driving beta-lactamase), forskolin EC10, beta-lactamase ratio; measured here: 460 nm blue channel
Method in brief: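 Beta-lactamase reporter under a cAMP responsive element in CHO cells; compounds tested in titration series against EC10 NKH 477, 3 h at 37 °C. Read-out: CCF4 FRET ratio 460nm/530nm (excitation 405nm) giving %Activity, fitted to AC50.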

| Compound | AC50 |
| --- | --- |
| Cc1cc(NC(=O)c2ccc(NC(=O)c3cccs3)cc2)no1 | 0.631 µM [rising, full curve, poor fit] |
| COc1cccc(Cn2c(=O)c(-c3cc(F)cc(F)c3)nc3cnc(N4CCNCC4)nc32)c1 | 1 µM [rising, full curve] |
| c1ccc(Nc2nc(-c3ccc4c(c3)OCO4)nc3ccccc23)cc1 | 3.16 µM [rising, partial curve] |
| COc1ccc(-n2c(Cc3cccn3C)nnc2SCC(=O)Nc2ccc(F)cc2)cc1 | 6.31 µM [falling, partial curve] |
| Cc1ccc2c(c1)nnn2C1CCN(CC(=O)Nc2ccccc2N2CCOCC2)CC1 | 10 µM [rising, partial curve] |
| Cc1cccc(-n2nnnc2SCC(=O)c2cc(C)n(Cc3ccco3)c2C)c1 | 0.0398 µM [falling, partial curve, poor fit] |
| Cn1nnnc1SCc1c(F)cccc1F | 5.01 µM [falling, partial curve] |
| O=C(OC1CCOC1=O)c1ccc2ccccc2n1 (stereo not drawn) | 3.98 µM [falling, partial curve] |
| COc1cc(-c2nnc(SCC(=O)Nc3cc(C)on3)n2C)cc(OC)c1O | 3.98 µM [falling, single point] |
| CCOC(=O)COc1ccc2c(c1)C(=O)CC(C)(c1cccnc1)O2 (stereo not drawn) | 25.1 µM [rising, single point] |
| Cn1c(=O)c(-c2cc(F)cc(F)c2)nc2cnc(N3CCOCC3)nc21 | 2 µM [rising, partial curve] |
| CCOC(=O)c1cc2cc(C)ccc2[nH]1 | 3.98 µM [falling, full curve] |
| CC(C)C(=O)c1c(C(C)C)nn2ccccc12 | 12.6 µM [rising, partial curve] |
| O=C(c1coc(=O)c2ccccc12)N1CCN(Cc2ccccc2)CC1 | 25.1 µM [rising, single point] |
| CCNCCNC(=O)c1c(O)c2ccccc2n(CC)c1=O | 3.16 µM [rising, single point] |
| Cc1occc1C(=O)Nc1cc(=O)n(C)c(=O)n1C | 0.00316 µM [falling, full curve, poor fit] |
| CN1CCc2nc(SCCOc3ccccc3)c(C#N)cc2C1 | 7.94 µM [rising, partial curve] |
| CN(C)c1ccc(C2CC(=O)NC3=C2C(=O)CC(C)(C)C3)cc1 (stereo not drawn) | 1 µM [falling, full curve, poor fit] |
| O[C@@H]1[C@@H]2c3cc4c(cc3CN3CCC(=C[C@@H]1O)[C@H]23)OCO4 | 0.794 µM [rising, full curve] |
| Nc1c(C(=O)NCCN2CCOCC2)c2nc3ccccc3nc2n1-c1cccc(F)c1 | 10 µM [rising, partial curve] |
| CCOC(=O)CC(=O)Nc1cc(Cl)ccc1O | 7.94 µM [falling, partial curve] |
| CC1=C(C(=O)OCC2CCCO2)C(c2ccccc2OC(C)C)C2=C(CC(c3ccco3)CC2=O)N1 (stereo not drawn) | 12.6 µM [rising, single point] |
| O=C(CN1CCN(Cc2ccccc2Cl)C1=O)N1CCCCCC1 | 12.6 µM [rising, single point] |

Exported tab-delimited: entries from further up.
Compound	AC50
COc1cccc(Cn2c(=O)c(-c3cc(F)cc(F)c3)nc3cnc(N4CCNCC4)nc32)c1	1 µM [rising, full curve]
c1ccc(Nc2nc(-c3ccc4c(c3)OCO4)nc3ccccc23)cc1	3.16 µM [rising, partial curve]
O=C(c1coc(=O)c2ccccc12)N1CCN(Cc2ccccc2)CC1	25.1 µM [rising, single point]
CCOC(=O)CC(=O)Nc1cc(Cl)ccc1O	7.94 µM [falling, partial curve]

The list goes on.

| Compound | AC50 |
| --- | --- |
| CCC(=O)c1ccc(N2CCCCCC2)c(F)c1 | 15.8 µM [rising, partial curve] |
| CCOC(=O)C1CCCN(c2ncnc3c2cnn3-c2cccc(C)c2)C1 (stereo not drawn) | 20 µM [rising, single point] |
| Cc1nnc(SCCn2c(N3CCCCCC3)nc3c2c(=O)[nH]c(=O)n3C)s1 | 12.6 µM [rising, single point] |
| Cn1c(=O)[nH]c(=O)c2c1nc(N(CCO)Cc1ccccc1)n2CCCc1ccccc1 | 12.6 µM [rising, partial curve] |
| CC1CCc2sc3ncnc(N4CCOCC4)c3c2C1 (stereo not drawn) | 25.1 µM [rising, single point] |
| CNc1nc(C)c(C#N)c(-c2ccccc2)c1C(C)=O | 10 µM [rising, partial curve] |
| CN1C(=O)c2cccc3c(S(=O)(=O)Nc4ccccn4)ccc1c23 | 10 µM [rising, single point] |
| CCOC(=O)C1CCN(S(=O)(=O)c2cccc(-c3csc(C)n3)c2)CC1 | 25.1 µM [rising, single point] |
| COc1ccc(Nc2nc3ccccc3c(=O)s2)c(OC)c1 | 25.1 µM [rising, single point] |
| CC(=O)c1ccc(Oc2cc(C)nc(-n3nc(C)cc3C)n2)cc1 | 2.51 µM [rising, partial curve] |
| CCOc1cc(N2CCOCC2)c(OCC)cc1NC(=O)COc1cccc2cccnc12 | 3.16 µM [falling, full curve] |
| Cc1nc2ccccc2c2oc(C(=O)NCCN3CCN(C)CC3)cc12 | 15.8 µM [rising, single point] |
| CC(C)(C)n1ncc2c(=O)n(CC(=O)Nc3ccc4c(c3)OCCO4)cnc21 | 25.1 µM [rising, single point] |
| CCOC(=O)c1cc2oc(C(c3nnnn3C3CCCCC3)N3CCOCC3)cc2[nH]1 (stereo not drawn) | 10 µM [rising, partial curve] |
| CCN(C(=O)CSc1nc2nc(C)cc(C)n2n1)c1ccccc1 | 6.31 µM [rising, partial curve] |
| Cc1ccc(Cn2nnc3c(=O)n(CC(=O)OCc4ccccc4)cnc32)cc1 | 10 µM [rising, single point] |
| COCCOC(=O)C1=C(C)NC(=O)N(C(C)=O)C1c1ccc(Cl)cc1 (stereo not drawn) | 0.0501 µM [falling, partial curve, poor fit] |
| CC(C)Cn1cc(C(=O)N2CCOCC2)c2c3ccccc3n(C)c2c1=O | 0.316 µM [falling, partial curve] |
| CCC(Sc1nc2n[nH]c(C)c2c(=N)n1-c1cccc(Cl)c1)C(=O)NCCOC (stereo not drawn) | 10 µM [rising, partial curve] |
| CN1CCN(c2ccccc2NC(=O)c2cccc(OCc3ccccc3)c2)CC1 | 1 µM [rising, full curve] |
| Cc1c(NC(=O)C(C)OC(=O)C(NC(=O)c2ccco2)C(C)C)c(=O)n(-c2ccccc2)n1C (stereo not drawn) | 0.398 µM [falling, full curve] |
| Cc1ccc(S(=O)(=O)NCCSc2nnnn2-c2cc(C)ccc2C)cc1 | 5.01 µM [rising, partial curve] |
| COc1ccc(Nc2cc(C)nc3nc(C)nn23)cc1Cl | 10 µM [rising, partial curve] |

| Compound | AC50 |
| --- | --- |
| COc1ccc(-n2c(=O)cnc3cnc(N4CCOCC4)nc32)cc1 | 10 µM [rising, single point] |
| CCc1nc2nc(C)cc(Nc3cccc(C(F)(F)F)c3)n2n1 | 10 µM [rising, partial curve] |
| N=c1c(C(=O)NCc2ccccc2)cc2c(=O)n3ccccc3nc2n1CCCN1CCOCC1 | 12.6 µM [rising, partial curve] |
| CC1CN(S(=O)(=O)c2cccs2)CC(C)O1 (stereo not drawn) | 0.00398 µM [falling, full curve, poor fit] |
| COCCn1c(SCc2nc3ccccc3s2)nc2ccccc21 | 12.6 µM [rising, single point] |
| CC1c2[nH]c3ccccc3c2CCN1C(=O)Nc1ccccc1 (stereo not drawn) | 20 µM [falling, single point] |
| COc1ccc(OC)c(Nc2cc(C)nc3nc(C)nn23)c1 | 10 µM [rising, partial curve] |
| COC(=O)c1cc2c(=O)n3ccccc3nc2n(C)c1=N | 10 µM [rising, partial curve] |
| Cc1noc(C)c1-c1nccc(Nc2ccc(F)cc2)n1 | 3.98 µM [rising, partial curve] |
| CCCc1cc(N2CCCC(C(=O)Nc3cc(Cl)ccc3OC)C2)n2ncnc2n1 (stereo not drawn) | 12.6 µM [rising, partial curve] |
| O=C(Nc1ccccc1C(F)(F)F)c1ccc(F)c(S(=O)(=O)N2CCOCC2)c1 | 0.501 µM [falling, full curve, poor fit] |
| COc1ccc(-c2nnc(-c3cccnc3)o2)cc1OC | 10 µM [rising, partial curve] |
| COc1ccc(-c2cc(C(F)(F)F)n3nc(C(=O)N4CCOCC4)nc3n2)cc1 | 12.6 µM [rising, partial curve] |
| CCOc1ccccc1N1C(=O)CC(Nc2ccc(N3CCOCC3)cc2)C1=O (stereo not drawn) | 0.631 µM [rising, full curve, poor fit] |
| Cc1[nH]c2ccccc2c1C(c1ccccn1)N1CCC(C(N)=O)CC1 (stereo not drawn) | 7.94 µM [falling, partial curve] |
| CCSc1sccc1C1C(C#N)=C(N)N(c2cccnc2)C2=C1C(=O)CC(C)(C)C2 (stereo not drawn) | 12.6 µM [rising, single point] |
| CCC1(CC)C(=O)NC(=O)NC1=NCCc1ccc(O)cc1 | 0.0251 µM [falling, full curve, poor fit] |
| O=C(CCS(=O)(=O)c1cccc2nonc12)N1CCCc2ccccc21 | 20 µM [falling, partial curve, poor fit] |
| COc1ccccc1CNc1ncncc1-c1cccc(C#N)c1 | 5.01 µM [rising, full curve] |
| CCc1nc(N2CCCCC2C)c2oc3ccccc3c2n1 (stereo not drawn) | 3.98 µM [rising, partial curve] |
| Cc1cc(Oc2ccccc2)nc(-c2ccccc2O)n1 | 3.16 µM [rising, full curve] |
| CCOC(=O)C1CCN(C(=O)CCNC(=O)Cn2ccc3ccccc3c2=O)CC1 | 0.0501 µM [rising, full curve, poor fit] |
